Record: PubChem BioAssay AID652272 (Drosophila RNAi Screening Center, 2013)
Test: 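Genes whose knock-down decreases or increases Hedgehog reporter output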 (primary screen). Cells: Drosophila clone 8 (Cl8) cells. Reagent: long dsRNA against Drosophila genes. Measured: 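Firefly light from a Hedgehog-responsive ptc promoter reporter and Renilla reference light, both read on a plate reader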. Direction: firefly Hh reporter signal: higher = more ptc reporter light; Renilla reference signal: higher = more Renilla control light. Hit rule: 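Hit when the z-score averaged over two replicates is under -2 or over +3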. Meaning of the calls: active = hit: reporter lowered or raised; inactive = not a hit.
The deposit covers about 21,000 reagents; below is a random part of those with a known target gene and a result. Over the whole deposit, 503 (2.4%) are marked active. 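Raw plate light values, not normalised; calls rest on replicate z-scores that were not deposited; hits include reporter decreases as well as increases.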 A number with no mark means an inactive call. Reagents against one gene are numbered here. Names joined by + are all predicted targets of the reagent. Not given: the amount of reagent, the time to read-out.

Gene | reagent | firefly Hh reporter signal, replicate 1 | firefly Hh reporter signal, replicate 2 | firefly Hh reporter signal, replicate 3 | Renilla reference signal, replicate 1 | Renilla reference signal, replicate 2
DptB (GeneID 37184) | 1 | 1.41e5 | 45400 | – | 3488 | 2194
f-cup (GeneID 41677) | 1 | 1.51e5 | 1.22e5 | – | 5229 | 4245
ND-18 (GeneID 32936) | 1 | 1.06e5 | 1.83e5 | – | 4054 | 7322
CG9068 (GeneID 36817) | 1 | 85329 | 64295 | – | 2701 | 4736
CG8539 (GeneID 38842) | 1 | 2.19e5 | 1.69e5 | – | 8585 | 6256
Ir48a (GeneID 3772197) | 1 | 1.62e5 | 2.40e5 | – | 3961 | 9004
CG18132 (GeneID 33333) | 1 | 1.09e5 | 97555 | – | 2512 | 2567
Gr85a (GeneID 117475) | 1 | 1.31e5 | – | – | 1888 | –
Syt12 (GeneID 32290) | 1 | 79248 | 3.36e5 | – | 2696 | 11926
CG5390 (GeneID 34383) | 1 | 1.22e5 | 40908 | – | 3207 | 4155
Acox57D-p (GeneID 37445) | 1 | 1.09e5 | 83315 | – | 3993 | 3296
CG33255 (retired record) + CR42842 + hpRNA:CR32205 + 1 more | 1 | 2.75e5 | – | – | 6433 | –
Exd2 (GeneID 41374) | 1 | 68570 | 1.34e5 | – | 2529 | 3330
sip2 (GeneID 33979) | 1 | 1.02e5 | 54085 | – | 3080 | 5242
CG13285 (GeneID 38623) | 1 | 65357 | 81136 | – | 8288 | 5674
RhoGAP1A (GeneID 5740235) | 1 | 90009 | 1.73e5 | – | 3048 | 7133
RhoGAP1A (GeneID 5740235) | 2 | 65760 | 1.65e5 | – | 1674 | 6336
CG44774 (GeneID 31424) | 1 | 77929 | 1.25e5 | – | 3090 | 5827
CG5693 (GeneID 50463) | 1 | 1.15e5 | 50169 | – | 2432 | 4116
CG32816 (GeneID 318225) | 1 | 4.43e5 | 1.81e5 | – | 22469 | 2802
CG32100 (GeneID 39400) | 1 | 40242 | 34304 | 47462 | 3641 | 3363
CG32100 (GeneID 39400) | 2 | 43302 | 35146 | 58864 | 3664 | 3669
Best2 (GeneID 38727) | 1 | 49644 | 59408 | – | 3523 | 4508
CG11598 (GeneID 41554) | 1 | 1.14e5 | 1.44e5 | – | 1456 | 4213
Cpr23B (GeneID 33480) | 1 | 1.60e5 | 1.03e5 | – | 3933 | 2128
nudC (GeneID 39879) | 1 | 1.22e5 | – | – | 2280 | 3453
nudC (GeneID 39879) | 2 | 1.22e5 | – | – | 2553 | 3753
CG15347 (GeneID 31779) | 1 | 1.25e5 | 3.30e5 | – | 3613 | 12541
CG17283 (GeneID 42094) | 1 | 54282 | 92440 | – | 1456 | 2832
dap (GeneID 36001) | 1 | 79035 | 66420 | – | 2813 | 2519
CG42820 (GeneID 34161) | 1 | 74059 | 53418 | – | 1500 | 5787
Hr38 (GeneID 35332) | 1 | 58565 | 27125 | – | 1819 | 2773
dbo (GeneID 53556) | 1 | 1.04e5 | – | – | 2816 | 2773
pll (GeneID 43283) | 1 | 1.62e5 | 96752 | – | 3571 | 2608
Diap1 (GeneID 39753) | 1 | 3968 (active) | 2784 | – | 309 | 131
CG31345 (GeneID 41576) | 1 | 82192 | 1.15e5 | – | 3457 | 2508
CG31345 (GeneID 41576) | 2 | 1.40e5 | 1.10e5 | – | 4944 | 2480
Alp10 (GeneID 38632) | 1 | 53165 | 49152 | – | 5245 | 3350
sip1 (GeneID 44238) | 1 | 63920 | 36640 | – | 1760 | 3530

12 entries from above, showing only “Renilla reference signal, replicate 1”:
CG8539 (GeneID 38842)	8585
Ir48a (GeneID 3772197)	3961
CG18132 (GeneID 33333)	2512
Gr85a (GeneID 117475)	1888
Syt12 (GeneID 32290)	2696
CG5390 (GeneID 34383)	3207
Acox57D-p (GeneID 37445)	3993
CG33255 (retired record) + CR42842 + hpRNA:CR32205 + 1 more	6433
Exd2 (GeneID 41374)	2529
sip2 (GeneID 33979)	3080
CG13285 (GeneID 38623)	8288
RhoGAP1A (GeneID 5740235) #1	3048

The listing continues:
Gene | reagent | firefly Hh reporter signal, replicate 1 | firefly Hh reporter signal, replicate 2 | firefly Hh reporter signal, replicate 3 | Renilla reference signal, replicate 1 | Renilla reference signal, replicate 2
eIF2Bbeta (GeneID 31256) | 1 | 69066 | 2.06e5 | – | 1383 | 8166
CG43278 (retired record) (GeneID 12797947) | 1 | 3.48e5 | 1.24e5 | – | 17780 | 3040
Pepck2 (GeneID 37130) | 1 | 1.26e5 | 74493 | – | 3367 | 4456
CG6985 (GeneID 42694) | 1 | 1.34e5 | 1.13e5 | – | 5909 | 4993
CG7668 (GeneID 40190) | 1 | 1.50e5 | 74576 | – | 5813 | 3080
Graf (GeneID 32522) | 1 | 74288 | 61289 | – | 2011 | 1548
CG7789 (GeneID 43516) | 1 | 94471 | 81860 | – | 2146 | 2048
Cpr60D (GeneID 246492) | 1 | 81590 | 53900 | – | 2633 | 5052
CG46491 (GeneID 36929) | 1 | 1.13e5 | 1.10e5 | – | 5387 | 4400
CG46491 (GeneID 36929) | 2 | 77112 | 41357 | – | 2232 | 3120
lgs (GeneID 43791) | 1 | 1.21e5 | 60680 | – | 2880 | 2375
Nup50 (GeneID 35784) | 1 | 74646 | 47618 | – | 3306 | 2214
Ykt6 (GeneID 31706) | 1 | 77174 | 85606 | – | 1751 | 2019
tplus3a + tplus3b | 1 | 1.06e5 | 1.89e5 | – | 3377 | 10052
alphaTub67C (GeneID 39130) | 1 | 15543 | 75481 | 66745 | 6989 | 4772
phol (GeneID 39095) | 1 | 68012 | 33139 | – | 3715 | 1744
MFS14 (GeneID 46085) | 1 | 1.59e5 | 1.17e5 | – | 6532 | 4341
tef (GeneID 36920) | 1 | 2.13e5 | 1.14e5 | – | 8560 | 4122
Fpps (GeneID 36209) | 1 | 62418 | 54359 | – | 2017 | 2162
bdl (GeneID 33635) | 1 | 1.04e5 | 44976 | – | 5434 | 2459
CG13135 (GeneID 34345) | 1 | 1.14e5 | 40627 | – | 3169 | 4752
PIG-G (GeneID 35685) | 1 | 1.64e5 | 1.14e5 | – | 5341 | 2327
CG1722 (GeneID 33101) | 1 | 91208 | 2.06e5 | – | 2793 | 8597
CG15814 (GeneID 32765) | 1 | 90976 (active) | 68005 | – | 2698 | 2381
nvy (GeneID 37886) | 1 | 1.28e5 | 3.84e5 | 1.10e5 | 5648 | 24562
Pdp (GeneID 31683) | 1 | 88128 | 79031 | – | 2347 | 1952
Atg1 (GeneID 39454) | 1 | 82403 | 61399 | – | 3329 | 2572
Atg1 (GeneID 39454) | 2 | 65308 | 71616 | 49805 | 8224 | 4173
CG3222 (GeneID 39114) | 1 | 23068 | 48057 | 63782 | 4384 | 4714
flr (GeneID 39505) | 1 | 1.15e5 | 71793 | – | 4432 | 2869
TTLL6B (GeneID 43282) | 1 | 94889 | 89208 | – | 3277 | 2897
SIFaR (GeneID 42530) | 1 | 60824 | 1.44e5 | – | 13211 | 3552
SIFaR (GeneID 42530) | 2 | 5.08e5 | 2.18e5 | – | 26588 | 5299
HipHop (GeneID 40047) | 1 | 78231 | 65003 | – | 3788 | 2737
